Some of the results follow. Values are raw readings; no control value is given beside them.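 First-pass screen: polymyxin B was added at a level that permeabilizes the Salmonella outer membrane while sparing the inner membrane. DMSO wells, with and without polymyxin B, defined maximum growth. Because plates differed from one another, each plate's data were ranked separately and the compounds with the lowest OD600 were carried forward as hits.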
Test system: Salmonella enterica serovar Typhimurium SL1344
Assay: bacterial growth OD600 after 18 h with compound and polymyxin B; higher = more bacterial growth (less inhibition)
Settings: 50 µM, Mueller-Hinton broth

| SMILES | bacterial growth OD600 (polymyxin B 0.75 µg/mL) | bacterial growth OD600 (polymyxin B 1 µg/mL) |
| --- | --- | --- |
| Cc1ccc(CC2(CCC(=O)N(CCO)Cc3ccccc3)CCC(=O)N2)cc1 (stereo not given) | 0.799 | – |
| COCCN(Cc1nc(NCCc2ccccc2OC)c2ccccc2n1)C(C)C | 0.858 | – |
| CCN(CC)c1ncccc1CNC(=O)Nc1ccc2c(c1)OCO2 | – | 0.845 |
| O=C(NCCc1cccnc1)c1coc(COc2ccc(F)cc2Cl)n1 | – | 0.919 |
| COc1ccc(OC)c(Cc2nnc(CCC(=O)NCc3cc(F)ccc3C)o2)c1 | – | 0.862 |
| C1CCC(Nc2nc3nonc3nc2N2CCCC(CN3CCOCC3)C2)C1 (stereo not given) | – | 0.834 |
| COCCN1C(=O)NC(Cc2ccccc2Cl)(C2CCN(C(=O)/C=C/C(C)C)CC2)C1=O (stereo not given) | 0.764 | – |
| O=C(NCC1CC(=O)N(C2CC2)C1)c1cc(Cn2ccc3ccccc32)[nH]n1 (stereo not given) | 0.781 | – |
| C[C@@H]1CN(C2(C(=O)NCC(C)(C)CO)Cc3ccccc3C2)C[C@H](C)O1 | 0.752 | – |
| CCN(CC)C(=O)C1CCCN(Cc2ccc3c(c2)CN(Cc2ccccc2)CCO3)C1 (stereo not given) | 0.752 | – |
| CCC(O)CNC(=O)C1CCN(C2CCN(Cc3ccccc3C)CC2)CC1 (stereo not given) | – | 1.09 |
| Cc1ccc2c(c1)CN(CC(=O)NC(C)C13CC4CC(CC(O)(C4)C1)C3)CC(c1ccsc1)O2 (stereo not given) | 0.659 | – |
| CN(CC1COCCO1)C(=O)C1(N2CCCCC2)Cc2ccccc2C1 (stereo not given) | 0.688 | – |
| COc1cccc(C(=O)C2CCCN(C3CCN(c4ccc5c(c4)OCO5)CC3)C2)c1 (stereo not given) | – | 1.27 |
| CC(NC(=O)CCc1nnc(Cc2cccc(C(F)(F)F)c2)o1)C1CC1 (stereo not given) | – | 0.816 |
| CCCCNC(=O)c1cc(CN2CCOCC2)on1 | – | 1.26 |
| Cc1cccc(C(=O)N2CCC(CCC(=O)NC3CCN(Cc4ccccc4)C3)CC2)n1 (stereo not given) | – | 0.965 |
| COCCn1cc(C(=O)NCCc2cccc(Cl)c2)c(=O)c(C(=O)N(C)CC(C)C)c1 | 0.749 | – |
| C=C(C)CNC(=O)C1CCCN(C2CCN(Cc3ccccc3)CC2)C1 (stereo not given) | 0.844 | – |
| COc1ccc(C(=O)N(C)CCCC2CCCC2)cc1OC1CCN(C(C)=O)CC1 | – | 0.884 |
| O=C(c1ccc2nc(Cc3ccccc3F)oc2c1)N1CCCC1c1ccccn1 (stereo not given) | – | 0.87 |
| CCOC(=O)N1CCN(C(=O)c2ccc(N3CCC(NCc4ccc(F)cc4)CC3)cc2)CC1 | 0.703 | – |
| COC(=O)c1ccc(CN2CCOc3ccc(C(O)Cc4ccccc4)cc3C2)cc1 (stereo not given) | 0.09 | – |
| CC(=O)c1cccc(OCc2cc(C(=O)NCc3ccc4c(c3)OCO4)n[nH]2)c1 | – | 0.869 |
| COC(=O)C1CCCCN1Cc1ccc2c(c1)CN(C(=O)COc1ccccc1OC)CCO2 (stereo not given) | 0.988 | – |
| CC(C)c1cc(CNC(=O)c2ccc(OC3CCN(C(=O)C4CC4)CC3)cc2)on1 | – | 0.758 |
| O=C(CC(F)(F)F)N1CCc2onc(-c3cccc4ccccc34)c2C1 | 0.356 | – |
| NC(=O)[C@@H]1CCCN1c1ccc(-c2nc(Cc3ccc(F)cc3)no2)cn1 | 0.785 | – |
| COCc1ccc(C(=O)Nc2ccc(-c3nc(CNC(=O)C(C)N4CCOCC4)c(C)o3)cc2)o1 (stereo not given) | 1.01 | – |
| COc1cccc(CCNC2CCN(c3ccc(NC(=O)Cc4cccc(F)c4)cc3)CC2)c1 | 0.843 | – |

An excerpt from above in order of formula weight, largest number first.

| SMILES | bacterial growth OD600 (polymyxin B 0.75 µg/mL) | bacterial growth OD600 (polymyxin B 1 µg/mL) |
| --- | --- | --- |
| CCC(O)CNC(=O)C1CCN(C2CCN(Cc3ccccc3C)CC2)CC1 (stereo not given) | – | 1.09 |
| NC(=O)[C@@H]1CCCN1c1ccc(-c2nc(Cc3ccc(F)cc3)no2)cn1 | 0.785 | – |
| O=C(CC(F)(F)F)N1CCc2onc(-c3cccc4ccccc34)c2C1 | 0.356 | – |
